Results reported in patent US20210107886A1, “PREPARATION OF CYCLIC ACETALS FOR FUEL” (TRIAD NATIONAL SECURITY, LLC, priority 2019, published 2021).

Test: not given
Conditions: taken from references; cited from earlier work

First: CCCCCCCCCCCC1(C)OC(C)C(C)O1 (centres unmarked) [H1, 2,4,5-trimethyl-2-undecyl-1,3-dioxolane]
Second: CCCCCCCCCCCC1(C)OCC(C)O1 (centres unmarked) [H2, 2,4-dimethyl-2-undecyl-1,3-dioxolane]
The “DCN (derived cetane number)” value of the first is lower: 84 for the first, 91 for the second.

For `CCCCCCCCCCCC1(C)OCCO1` [H3, 2-methyl-2-undecyl-1,3-dioxolane], the “DCN (derived cetane number)” value is listed as 81.

Test: Yield sooting index (YSI)
Conditions: not given
Method: All chemicals and reagent grade solvents were obtained from commercial vendors and were used as received. ^1H and ^13C NMR spectra were obtained at room temperature on a Bruker AV400 MHz spectrometer, with chemical shifts (6) referenced to the residual solvent signal (^1H and ^13C). GC/MS analysis was carried out using a Hewlett-Packard 6890 GC system equipped with a Hewlett-Packard 5973 mass selective detector. FT-IR measurements were collected on a Perkin Elmer Spectrum Two FT-IR, where a drop of compound was pressed between two KBr plates. FTIR shifts were: very strong (vs), strong (s), medium (m), and weak (w). Combustion calorimeter measurements were performed using an IKA C1 compact combustion calorimeter, the NHOC was calculated by taking into consideration the hydrogen content and subtracting from the gross heat of combustion. DSC measurements were performed using a Netzsch DCS 204 F1 Phoenix. Viscosity and density measurements were performed using an Anton Paar SVM 3001. Elemental analysis was performed by Atlantic Microlabs. YSI measurements were conducted at Yale University.

First: CCC(CC)C1OC(C)C(C)O1 (centres unmarked) [Compound 1, 2-(1-Ethylpropyl)-4,5-dimethyl-1,3-dioxolane]
Second: CCCCC(CC)C1OC(C)C(C)O1 (centres unmarked) [Compound 2, 2-(1-Ethylpentyl)-4,5-dimethyl-1,3-dioxolane]
The “YSI (yield sooting index)” value of the first is lower: 58 for the first, 69 for the second.

Compared with `CCCC1OC(C)C(C)O1` (centres unmarked) [Compound 3, 4,5-Dimethyl-2-propyl-1,3-dioxolane], `CCCCCC1OC(C)C(C)O1` (centres unmarked) [Compound 4, 4,5-Dimethyl-2-pentyl-1,3-dioxolane] is higher in “YSI (yield sooting index)” value: 36 for the first, 49 for the second.

With `CCCCCCCC1OC(C)C(C)O1` (centres unmarked) [Compound 5, 4,5-Dimethyl-2-heptyl-1,3-dioxolane] the “YSI (yield sooting index)” value was 63.
